Measurements reported in US10881645B2, “Methods for controlling blood pressure and reducing dyspnea in heart failure” (Chiesi Farmaceutici S.p.A., priority 2012, dated 2021).

Test system: AHF patients with SBP of ≥160 mmHg
Assay: Procedures, hospital/ICU admissions, length of stay and readmissions in the AHF trial
Design: species or system human
Settings: in vivo

In the case of CCCC(=O)OCOC(=O)C1=C(C)NC(C)=C(C(=O)OC)C1c1cccc(Cl)c1Cl (centres unmarked) [clevidipine], the Median hospital stay was 4.0 days and the “Out-of-hospital period before re-hospitalization” value was 11.0 days.

The amount applied is not stated for every result.
